PubChem BioAssay AID1259264, Sanger Institute | 2017
Aim: 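Kinase-wide knock-down to find genes that strengthen targeted drug effects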 (primary screen). Cell system: CL40 human colorectal cancer cells. Knock-down reagent: siRNA pool against human genes. Treatment: DMSO, or an anchor drug: BYL719 at 1 µM, cetuximab at 5 µg/ml, or trametinib at 10 nM. Measurement: 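Replicate-mean viability versus a non-targeting pool, robust z-score from control wells, and mean synergy with BYL719 1 µM, cetuximab 5 µg/ml or trametinib 10 nM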. Reading the numbers: robust z-score, siRNA alone: higher = more viable cells. Hit rule: 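Essential call: siRNA with no drug reaches a robust z under -3 (low cell count); drug synergy scores do not affect it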. Calls: active = essential (lowers viability alone); inactive = not essential.
This is an unselected part of 794 reagents. 15 of them (1.9%) were called active. 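Calls rest on knock-down alone at z-score below -3; synergy scores with the three drugs do not decide them.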 Entries without a mark were called inactive. Not all columns of the deposit are shown. Not given: the amount of reagent, the time to read-out.

The first 2 records, to show the layout:
| target | robust z-score, siRNA alone |
| --- | --- |
| PRKCG (protein kinase C gamma) | 0.539 |
| PIK3CA | -0.366 |

Main list, from the first entry:
| target | robust z-score, siRNA alone |
| --- | --- |
| PRKCG (protein kinase C gamma) | 0.539 |
| PIK3CA | -0.366 |
| MAP3K21 (mitogen-activated protein kinase kinase kinase 21) | 0.539 |
| SRMS | -0.599 |
| PKLR (pyruvate kinase L/R) | 0.539 |
| PTPRU (protein tyrosine phosphatase receptor type U) | -0.0832 |
| CSF1R (colony stimulating factor 1 receptor) | 0.309 |
| DDR1 (discoidin domain receptor tyrosine kinase 1) | 0.539 |
| MAP2K2 (mitogen-activated protein kinase kinase 2) | 0.539 |
| FN3KRP (fructosamine 3 kinase related protein) | -1.08 |
| TJP2 (tight junction protein 2) | -0.766 |
| CRKL (CRK like proto-oncogene, adaptor protein) | 0.539 |
| PIK3C3 (phosphatidylinositol 3-kinase catalytic subunit type 3) | 0.539 |
| WNK1 (WNK lysine deficient protein kinase 1) | 0.539 |
| NME2 (NME/NM23 nucleoside diphosphate kinase 2) | 0.396 |
| PDIK1L (PDLIM1 interacting kinase 1 like) | 0.539 |
| STK35 (serine/threonine kinase 35) | 0.539 |
| MAPK7 (mitogen-activated protein kinase 7) | 0.539 |
| MARK4 (microtubule affinity regulating kinase 4) | 0.539 |
| INSRR (insulin receptor related receptor) | 0.539 |
